Experimental findings from publication doi:10.1101/2025.08.21.671500 are described below.

Sequences of proteins named here, by UniProt entry; tags and fusion partners are left off.
UniProt P43268: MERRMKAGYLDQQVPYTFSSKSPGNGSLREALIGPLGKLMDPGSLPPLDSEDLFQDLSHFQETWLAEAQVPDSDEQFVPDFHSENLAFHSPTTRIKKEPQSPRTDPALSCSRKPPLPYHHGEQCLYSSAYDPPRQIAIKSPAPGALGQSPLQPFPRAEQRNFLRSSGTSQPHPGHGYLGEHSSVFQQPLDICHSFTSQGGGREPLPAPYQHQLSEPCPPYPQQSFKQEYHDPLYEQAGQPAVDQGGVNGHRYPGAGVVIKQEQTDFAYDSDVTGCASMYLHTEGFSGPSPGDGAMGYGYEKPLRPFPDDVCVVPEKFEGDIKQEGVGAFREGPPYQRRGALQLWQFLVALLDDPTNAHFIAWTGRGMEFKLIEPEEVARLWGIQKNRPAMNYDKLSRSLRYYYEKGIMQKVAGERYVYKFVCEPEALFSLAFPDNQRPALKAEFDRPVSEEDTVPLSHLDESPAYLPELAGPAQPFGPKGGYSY
UniProt Q92826: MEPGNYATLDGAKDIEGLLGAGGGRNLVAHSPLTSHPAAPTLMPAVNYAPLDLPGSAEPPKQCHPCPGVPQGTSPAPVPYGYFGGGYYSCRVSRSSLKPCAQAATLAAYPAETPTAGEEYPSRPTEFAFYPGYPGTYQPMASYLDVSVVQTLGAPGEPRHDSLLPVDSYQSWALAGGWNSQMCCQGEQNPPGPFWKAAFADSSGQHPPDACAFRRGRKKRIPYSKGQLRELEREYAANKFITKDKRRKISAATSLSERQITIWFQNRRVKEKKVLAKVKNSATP
UniProt P10275: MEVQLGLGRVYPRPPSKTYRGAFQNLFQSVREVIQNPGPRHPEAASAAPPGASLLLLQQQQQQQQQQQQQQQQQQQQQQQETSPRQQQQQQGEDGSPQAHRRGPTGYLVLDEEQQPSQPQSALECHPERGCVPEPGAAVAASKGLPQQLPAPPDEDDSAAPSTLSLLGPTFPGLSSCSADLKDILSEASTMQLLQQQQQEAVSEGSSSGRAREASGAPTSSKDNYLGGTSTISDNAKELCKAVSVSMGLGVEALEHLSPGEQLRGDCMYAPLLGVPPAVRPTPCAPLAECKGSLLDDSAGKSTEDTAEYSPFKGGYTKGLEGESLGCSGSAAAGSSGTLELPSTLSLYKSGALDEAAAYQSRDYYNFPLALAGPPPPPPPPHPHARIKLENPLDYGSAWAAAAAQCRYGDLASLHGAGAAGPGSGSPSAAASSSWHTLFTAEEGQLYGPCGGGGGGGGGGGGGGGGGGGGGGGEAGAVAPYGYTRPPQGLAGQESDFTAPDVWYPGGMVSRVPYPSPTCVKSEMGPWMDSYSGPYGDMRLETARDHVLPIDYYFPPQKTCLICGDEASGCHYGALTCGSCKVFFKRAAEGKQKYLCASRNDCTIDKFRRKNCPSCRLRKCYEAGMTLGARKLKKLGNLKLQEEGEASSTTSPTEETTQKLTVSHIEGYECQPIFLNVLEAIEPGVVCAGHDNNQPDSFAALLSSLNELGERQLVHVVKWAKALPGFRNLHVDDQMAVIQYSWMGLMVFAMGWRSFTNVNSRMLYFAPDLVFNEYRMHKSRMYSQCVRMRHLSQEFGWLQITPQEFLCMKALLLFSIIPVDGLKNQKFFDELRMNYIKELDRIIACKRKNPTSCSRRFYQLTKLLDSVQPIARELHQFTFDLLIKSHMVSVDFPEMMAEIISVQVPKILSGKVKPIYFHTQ

Common to all, as to assay: proximity labelling
The target in assay [1] is T1, FOXA1 fused to biotin ligase (FOXA1-BioID) (human) (UniProt P55317).
T1 sequence: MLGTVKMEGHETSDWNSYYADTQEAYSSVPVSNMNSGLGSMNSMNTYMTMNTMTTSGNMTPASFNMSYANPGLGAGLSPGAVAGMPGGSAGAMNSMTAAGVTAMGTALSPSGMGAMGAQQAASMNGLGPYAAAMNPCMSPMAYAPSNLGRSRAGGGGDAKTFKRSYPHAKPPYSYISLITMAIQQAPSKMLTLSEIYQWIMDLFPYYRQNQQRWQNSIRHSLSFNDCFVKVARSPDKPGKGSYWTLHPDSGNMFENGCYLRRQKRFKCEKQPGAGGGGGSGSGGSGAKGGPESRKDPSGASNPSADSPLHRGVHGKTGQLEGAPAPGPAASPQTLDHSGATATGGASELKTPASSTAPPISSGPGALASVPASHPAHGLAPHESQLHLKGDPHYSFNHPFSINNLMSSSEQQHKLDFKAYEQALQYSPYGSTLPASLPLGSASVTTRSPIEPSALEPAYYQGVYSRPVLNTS

For assay [2], the target named is T2, FOXA2 fused to biotin ligase (FOXA2-BioID) (human) (UniProt Q9Y261).
T2 sequence: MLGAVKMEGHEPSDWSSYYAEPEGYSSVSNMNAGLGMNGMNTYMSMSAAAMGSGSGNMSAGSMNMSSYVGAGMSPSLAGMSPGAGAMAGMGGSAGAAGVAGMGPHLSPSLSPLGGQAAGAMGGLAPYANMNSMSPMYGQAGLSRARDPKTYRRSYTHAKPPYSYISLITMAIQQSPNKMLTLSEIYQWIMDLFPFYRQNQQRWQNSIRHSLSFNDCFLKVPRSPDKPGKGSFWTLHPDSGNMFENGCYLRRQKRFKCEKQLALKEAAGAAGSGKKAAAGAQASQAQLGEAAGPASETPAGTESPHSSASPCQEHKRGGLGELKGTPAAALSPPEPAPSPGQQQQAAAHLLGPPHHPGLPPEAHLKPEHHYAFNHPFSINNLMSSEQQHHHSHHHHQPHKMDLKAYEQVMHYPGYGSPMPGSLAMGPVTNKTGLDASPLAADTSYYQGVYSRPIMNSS

Assay [3] addresses T1, FOXA1 fused to biotin ligase (FOXA1-BioID) (human). The source holds these as a separate data set.
The target of assay [4] is T2, FOXA2 fused to biotin ligase (FOXA2-BioID) (human). The source holds these as a separate data set.
In assay [5] the target is T1, FOXA1 fused to biotin ligase (FOXA1-BioID) (human). This is another data set of the same source.
Assay [6] concerns the target T3, FOXA2 fused to biotin ligase (FOXA2-BioID) (human), Q9Y261.
T3 chain: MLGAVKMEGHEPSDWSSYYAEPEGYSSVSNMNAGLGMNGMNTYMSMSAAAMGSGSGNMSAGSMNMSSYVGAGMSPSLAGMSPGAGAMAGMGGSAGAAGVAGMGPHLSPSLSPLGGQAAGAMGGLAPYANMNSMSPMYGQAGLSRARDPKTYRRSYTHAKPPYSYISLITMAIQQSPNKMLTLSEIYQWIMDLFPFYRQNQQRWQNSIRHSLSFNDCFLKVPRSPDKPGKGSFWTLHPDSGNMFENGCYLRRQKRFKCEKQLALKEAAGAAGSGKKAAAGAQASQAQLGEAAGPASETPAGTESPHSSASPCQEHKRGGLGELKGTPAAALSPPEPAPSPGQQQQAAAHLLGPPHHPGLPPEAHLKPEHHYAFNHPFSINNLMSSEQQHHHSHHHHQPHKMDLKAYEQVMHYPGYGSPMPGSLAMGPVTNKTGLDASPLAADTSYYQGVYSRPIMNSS
The following applies: remark: other sources report otherwise.

In assay [7] the target is T2, FOXA2 fused to biotin ligase (FOXA2-BioID) (human). The source holds these as a separate data set.

Like-named read-outs stand apart in the source and are kept apart here. These are yes or no findings as the source states them, for the method shown. In cells and extracts the contact can be indirect. These calls come from enrichment with a bait or labelling near it, and not all partners need be listed. Sequences can lack the tags named with a protein.

For ETV4 (from UniProt P43268 1-484), the binding result in assay [1] and in assay [2] was “binds weakly” in each case.
As to HOXB13 (from UniProt Q92826 1-284), the binding result in assay [1], in assay [2], in assay [3] and in assay [4] was “binds” each time.
For the molecule “androgen receptor (from UniProt P10275 1-920)”, the binding entry in assay [1] and in assay [2] was “binds” in each case.

B1: FOXA2 (protein, UniProt Q9Y261 1-457)
chain: MLGAVKMEGHEPSDWSSYYAEPEGYSSVSNMNAGLGMNGMNTYMSMSAAAMGSGSGNMSAGSMNMSSYVGAGMSPSLAGMSPGAGAMAGMGGSAGAAGVAGMGPHLSPSLSPLGGQAAGAMGGLAPYANMNSMSPMYGQAGLSRARDPKTYRRSYTHAKPPYSYISLITMAIQQSPNKMLTLSEIYQWIMDLFPFYRQNQQRWQNSIRHSLSFNDCFLKVPRSPDKPGKGSFWTLHPDSGNMFENGCYLRRQKRFKCEKQLALKEAAGAAGSGKKAAAGAQASQAQLGEAAGPASETPAGTESPHSSASPCQEHKRGGLGELKGTPAAALSPPEPAPSPGQQQQAAAHLLGPPHHPGLPPEAHLKPEHHYAFNHPFSINNLMSSEQQHHHSHHHHQPHKMDLKAYEQVMHYPGYGSPMPGSLAMGPVTNKTGLDASPLAADTSYYQGVYSRPIMNSS
Turning to B1, in assay [5], the binding entry was “binds”.

B2: NKX2-1 (protein, UniProt P43699 1-371)
chain: MSMSPKHTTPFSVSDILSPLEESYKKVGMEGGGLGAPLAAYRQGQAAPPTAAMQQHAVGHHGAVTAAYHMTAAGVPQLSHSAVGGYCNGNLGNMSELPPYQDTMRNSASGPGWYGANPDPRFPAISRFMGPASGMNMSGMGGLGSLGDVSKNMAPLPSAPRRKRRVLFSQAQVYELERRFKQQKYLSAPEREHLASMIHLTPTQVKIWFQNHRYKMKRQAKDKAAQQQLQQDSGGGGGGGGTGCPQQQQAQQQSPRRVAVPVLVKDGKPCQAGAPAPGAASLQGHAQQQAQHQAQAAQAAAAAISVGSGGAGLGAHPGHQPGSAGQSPDLAHHAASPAALQGQVSSLSHLNSSGSDYGTMSCSTLLYGRTW
On to B2, for which the binding result in assay [5] was “binds”.

B3: NKX2-1, P43699 1-371 (protein)
chain: MSMSPKHTTPFSVSDILSPLEESYKKVGMEGGGLGAPLAAYRQGQAAPPTAAMQQHAVGHHGAVTAAYHMTAAGVPQLSHSAVGGYCNGNLGNMSELPPYQDTMRNSASGPGWYGANPDPRFPAISRFMGPASGMNMSGMGGLGSLGDVSKNMAPLPSAPRRKRRVLFSQAQVYELERRFKQQKYLSAPEREHLASMIHLTPTQVKIWFQNHRYKMKRQAKDKAAQQQLQQDSGGGGGGGGTGCPQQQQAQQQSPRRVAVPVLVKDGKPCQAGAPAPGAASLQGHAQQQAQHQAQAAQAAAAAISVGSGGAGLGAHPGHQPGSAGQSPDLAHHAASPAALQGQVSSLSHLNSSGSDYGTMSCSTLLYGRTW
As to B3, the binding entry in assay [6] was “binds”.

B4: FOXA1 (protein, UniProt P55317 1-472)
chain: MLGTVKMEGHETSDWNSYYADTQEAYSSVPVSNMNSGLGSMNSMNTYMTMNTMTTSGNMTPASFNMSYANPGLGAGLSPGAVAGMPGGSAGAMNSMTAAGVTAMGTALSPSGMGAMGAQQAASMNGLGPYAAAMNPCMSPMAYAPSNLGRSRAGGGGDAKTFKRSYPHAKPPYSYISLITMAIQQAPSKMLTLSEIYQWIMDLFPYYRQNQQRWQNSIRHSLSFNDCFVKVARSPDKPGKGSYWTLHPDSGNMFENGCYLRRQKRFKCEKQPGAGGGGGSGSGGSGAKGGPESRKDPSGASNPSADSPLHRGVHGKTGQLEGAPAPGPAASPQTLDHSGATATGGASELKTPASSTAPPISSGPGALASVPASHPAHGLAPHESQLHLKGDPHYSFNHPFSINNLMSSSEQQHKLDFKAYEQALQYSPYGSTLPASLPLGSASVTTRSPIEPSALEPAYYQGVYSRPVLNTS
With B4, the binding entry in assay [7] is “binds”.
